PubChem BioAssay AID743454, Peter MacCallum Cancer Centre – 2014

Aim: 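Genes whose loss kills vorinostat-resistant colon cancer cells under vorinostat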 (primary screen)
System: human HCT116-VR colon cancer cells, selected for vorinostat resistance
Knock-down reagent: siRNA pool against human genes, 40 nM siRNA pool
Time to read-out: vorinostat for 24 h, read-out about 72 h after transfection
Challenge: vorinostat at 2.5 µM final
Measured: 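Two measures, CellTiter-Fluor viability and luminescent caspase 3/7 activity, each as fold change against same-plate mock wells, mean of duplicates, then screen-wide robust z-score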
Scale: viability robust z-score: higher = more viable cells than screen typical; caspase robust z-score: higher = more caspase 3/7 activity than screen typical
Active means: 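a knock-down is a hit when classed RV1 or RV2 for lowered viability, or CA1 or CA2 for caspase activation; those lethal without drug were dropped; hits were retested singly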
The deposit covers about 18,000 reagents; shown is a part drawn at random. 450 of all reagents (2.5%) were called active. 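Single biological run; no consistent viability z cut-off exists, so the class columns, not z-scores, define the calls.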 Entries without a mark were called inactive.

| target gene | viability hit class | caspase hit class | viability robust z-score | caspase robust z-score |
| --- | --- | --- | --- | --- |
| ZMYND19 | no change | no change | 1.98 | -0.52 |
| TMEM107 | no change | no change | -2.08 | 1.47 |
| TUBD1 | no change | no change | -1.23 | 0.28 |
| TP53TG5 | no change | no change | 0.36 | 0.64 |
| KMT2D | no change | no change | -3.83 | -0.32 |
| RUSC1 | no change | no change | -0.01 | -0.9 |
| NLRP4 | no change | no change | -1.82 | 3.44 |
| PCOTH | no change | no change | 2.06 | -0.54 |
| RNASEH2C | no change | no change | 1.42 | 1.8 |
| AUH | no change | no change | -0.94 | 0.28 |
| RAD1 | no change | no change | 0.23 | -0.49 |
| DEDD2 | no change | no change | -0.82 | 4.11 |
| SLITRK6 | no change | no change | 0.8 | -0.79 |
| ATP11B | no change | no change | 0.26 | -1.32 |
| NDUFA12 | no change | no change | 0.5 | 0.46 |
| VWC2 | no change | no change | -1.12 | -0.86 |
| AMHR2 | no change | no change | 0.02 | 0.44 |

Copied from the list.
For “viability robust z-score”, KMT2D has -3.83
Entry for PCOTH in “caspase robust z-score”: -0.54
Value for NLRP4 under “viability hit class”: no change
SLITRK6, viability robust z-score → 0.8
For “caspase robust z-score”, TMEM107 has 1.47

More reagents:
| target gene | viability hit class | caspase hit class | viability robust z-score | caspase robust z-score |
| --- | --- | --- | --- | --- |
| LY86 | no change | no change | 1 | 0.06 |
| THEMIS2 | no change | no change | 0.35 | -0.84 |
| PRPF3 | no change | no change | -2.36 | 0.82 |
| SLC25A32 | no change | no change | -0.44 | -1.2 |
| XPNPEP3 | no change | no change | -0.04 | 0.11 |
| MMP19 | no change | no change | 0.28 | -0.08 |
| SDHAF2 | no change | no change | -0.15 | 0.7 |
| KISS1 | no change | no change | -2.6 | 1.68 |
| PSIP1 | no change | no change | 0.5 | 1.6 |
| ARHGEF12 | no change | no change | -0.52 | -0.04 |
| IQGAP3 | no change | no change | -0.74 | -0.3 |
| OR9A4 | no change | no change | -0.92 | 0.75 |
| REST | no change | no change | -1.5 | 3.49 |
| CNIH4 | no change | no change | 0.36 | -0.25 |
| GPR50 | no change | no change | 0.36 | 0.04 |
| TMEM150C | no change | no change | -0.04 | -0.38 |
| PHF14 | no change | no change | -0.84 | 2.44 |
| FBN1 | no change | no change | 0.55 | -0.66 |
| BBS12 | no change | no change | 0.77 | -0.95 |
| PCDHA4 | no change | no change | -1.04 | -0.82 |
| TCAP | no change (active) | CA2 (caspase activation) | 0.46 | 5.16 |
| ZNF774 | no change | no change | -0.52 | -1.18 |
